## Primary screen of a compound library

By UniProt entry, the sequences of proteins in these tests, tags left out.
UniProt E9BF75, entry or part of it: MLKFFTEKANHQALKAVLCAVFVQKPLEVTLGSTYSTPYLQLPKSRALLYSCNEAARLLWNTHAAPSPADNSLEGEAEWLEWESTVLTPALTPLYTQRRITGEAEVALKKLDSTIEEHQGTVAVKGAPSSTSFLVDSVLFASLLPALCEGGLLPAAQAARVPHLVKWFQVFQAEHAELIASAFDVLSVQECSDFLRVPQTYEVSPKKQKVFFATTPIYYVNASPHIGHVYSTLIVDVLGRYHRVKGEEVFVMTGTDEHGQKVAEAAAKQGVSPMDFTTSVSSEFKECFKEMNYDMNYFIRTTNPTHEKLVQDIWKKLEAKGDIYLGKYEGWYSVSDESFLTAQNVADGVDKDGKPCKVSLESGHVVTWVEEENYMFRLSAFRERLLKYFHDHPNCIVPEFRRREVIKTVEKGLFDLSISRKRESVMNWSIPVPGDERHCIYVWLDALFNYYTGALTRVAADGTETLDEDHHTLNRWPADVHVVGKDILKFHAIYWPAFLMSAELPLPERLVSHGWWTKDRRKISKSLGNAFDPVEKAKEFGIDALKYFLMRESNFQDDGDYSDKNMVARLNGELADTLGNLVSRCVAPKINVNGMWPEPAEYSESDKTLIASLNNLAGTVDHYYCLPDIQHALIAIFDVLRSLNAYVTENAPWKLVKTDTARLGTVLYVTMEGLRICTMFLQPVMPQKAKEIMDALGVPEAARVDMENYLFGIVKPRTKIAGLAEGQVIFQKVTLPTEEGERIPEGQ

The values are deposited in ChEMBL (CHEMBL3988442, “University of Dundee, Small-Polar-MMV Screening Library” (2021)).

Mtb heat-shock: 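Assay on Mycobacterium tuberculosis, filed only as a heat shock assay from Cornell; the read-out is not stated. The concentration is filed as 10 mM, unlikely as a test dose, so the dose is not known. Higher reads as stronger inhibition (inferred: compounds with an IC50 in retests scored well above the rest). Of about 69,000 compounds tested this way, about 930 (1.4%) reached 50% or more in at least one test.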
Mtb growth Cornell: 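Whole-cell assay for inhibitors of Mycobacterium tuberculosis growth, labelled Cornell in the record; the read-out is not stated. The concentration is filed as 10 mM, unlikely as a test dose, so the dose is not known. The record gives no direction; compounds strong in two other growth screens of this library score well above the rest, so higher reads as stronger inhibition. About 53,000 compounds were tested under these conditions; 1.7% (about 900) showed 50% or more at least once.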
LdMetRS: 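Primary screen of methionyl-tRNA synthetase; the read-out is not stated. Target: Methionyl-tRNA synthetase (putative), Leishmania donovani (UniProt E9BF75). The test concentration is not given. The values are filed as inhibition. Of about 68,000 compounds tested this way, about 24 (0.035%) reached 50% or more in at least one test.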

Results are percentages, as filed.
The controls that fix the scale are not given in the record; negative values are as filed.
This is an unselected part of the compounds tested.

With COCc1cncc2c1CCN(C(=O)c1cccc(C#N)c1)C2 the screen gave LdMetRS: 15.06%. For O=C(CN1CCCC1CCCO)NCc1ccccn1 (configuration not stated) the result was Mtb heat-shock: -18.66%; LdMetRS: 5.077%. For c1cc(C2CCCN2Cc2nnnn2C2CC2)cs1 (configuration not stated) the result was Mtb heat-shock: 7.692%; Mtb growth Cornell: 18.67%; LdMetRS: 20.35%. CN1CCN(C(=O)c2cc3sccc3n2Cc2ccccc2Cl)CC1 read Mtb heat-shock: -12.32%; Mtb growth Cornell: 8.524%; LdMetRS: 11.26%. CCN(CC1CCOC1)C(=O)c1cccnc1N1CCOCC1 (configuration not stated) read Mtb heat-shock: 18.08%; Mtb growth Cornell: -3.207%; LdMetRS: 10.24%. NC1C=C(C(F)(F)F)NC=C1c1ccc(Cl)cc1 (configuration not stated) read Mtb heat-shock: 9.628%; Mtb growth Cornell: 17.12%; LdMetRS: 12.7%.

CCCc1nc(C(=O)N(C)Cc2cnn(-c3cccc(OC)c3)c2)cs1 read Mtb heat-shock: 4.555%; Mtb growth Cornell: 25.73%; LdMetRS: 18.09%. [H][C@@]12CCN(Cc3ccc(C)cc3)C[C@]1([H])[C@H](c1nc(C)no1)CCO2 gave Mtb heat-shock: 3.31%; Mtb growth Cornell: 12.84%. With CCc1csc(CNC2CCN(c3ccc(C)cc3)CC2)n1 the screen gave Mtb heat-shock: -0.7399%; Mtb growth Cornell: 26.76%; LdMetRS: 20.41%. Result for CC(=O)N1CCC(Cc2cncc(-c3c(C)n[nH]c3C)n2)C1 (configuration not stated) was Mtb heat-shock: -0.9695%; Mtb growth Cornell: -34.48%; LdMetRS: 12.86%. For OCc1n[nH]c(-c2ccc(F)cc2)n1 the result was Mtb heat-shock: 0.2779%; Mtb growth Cornell: 17.35%; LdMetRS: 4.556%. For CCN(CC)C(=O)[C@@H]1C[C@@H](N)CN1C(=O)c1cc2c([nH]c1=O)CCC2 the result was Mtb heat-shock: 0.3256%; Mtb growth Cornell: -7.437%; LdMetRS: 4.301%.

For Cc1ccc(N2CC3(COCCN(Cc4cnn(C)c4)C3)OCC2=O)s1 (configuration not stated) the result was LdMetRS: 2.837%. Result for CCOc1ccc(C(=O)N2CCCC2Cn2cc(C)cn2)cn1 (configuration not stated) was Mtb heat-shock: 13.76%; LdMetRS: 11.72%. For CC(C)(C)OC(=O)N1CCC(C(=O)NC2CCS(=O)(=O)C2)CC1 (configuration not stated) the result was Mtb heat-shock: 2.715%; Mtb growth Cornell: -15.87%; LdMetRS: 5.163%. Result for CC(C)S(=O)(=O)N1CCCC(c2nnc(Cn3ccnc3)n2C)C1 (configuration not stated) was Mtb heat-shock: 7.046%; LdMetRS: 7.117%. Result for COc1ccc(CC(=O)N2Cc3nccn3CC(CN(C)C)C2)cc1.O=C(O)C(F)(F)F (configuration not stated) was Mtb heat-shock: -12.91%; Mtb growth Cornell: -21.01%. CCc1ccc(CN2CCN(CCOC)[C@@H]3CS(=O)(=O)C[C@@H]32)cc1 read LdMetRS: 14.84%.

O=C(O)C(F)(F)F.O=C(O)C(F)(F)F.[H][C@@]12CN(Cc3csc(C)n3)CCO[C@]1([H])CN(Cc1nccs1)C2 read Mtb heat-shock: -26.44%; Mtb growth Cornell: 4.309%. With O=C(Cn1cc(-c2ccccc2)ncc1=O)Nc1ncc[nH]1 the screen gave Mtb heat-shock: 6.865%; Mtb growth Cornell: 32.75%; LdMetRS: 17.43%. For O=C(c1cccnc1SCc1ccccc1)N1CCOCC1 the result was Mtb heat-shock: 10.28%; Mtb growth Cornell: -3.826%; LdMetRS: 1.944%. Result for CCOc1ccccc1-c1cc(N)[nH]n1 was LdMetRS: 12.26%. Cn1nc(Cn2ccnc2)c2c1CN(c1ncccn1)C2 read LdMetRS: 7.266%. Cc1ccnc(C2COCCN2C)n1 (configuration not stated) read Mtb heat-shock: -10.1%; Mtb growth Cornell: -10.5%; LdMetRS: 6.977%.

OC(CNCc1ccccc1C(F)(F)F)c1ccccc1 (configuration not stated) gave LdMetRS: -3.759%. COCC1CN(C(=O)CC2Cc3ccccc3C2)Cc2c1cnn2C (configuration not stated) gave Mtb heat-shock: -10.7%; Mtb growth Cornell: 22.02%; LdMetRS: 14.84%. CN1CC(=O)N(c2ccsc2)CC12CCN(C(=O)N1CCCC1)C2.O=C(O)C(F)(F)F (configuration not stated) read Mtb heat-shock: -15.35%; Mtb growth Cornell: -18.35%. With CCN(CC1CCOC1)C(=O)c1ccccc1NS(=O)(=O)CC (configuration not stated) the screen gave Mtb heat-shock: 15.51%; Mtb growth Cornell: 17.27%; LdMetRS: 15.75%. Result for CC[C@]12CN3C[C@](C)(CN(C1)C3c1[nH]c(=O)[nH]c(=O)c1C)C2=O (some centres not stated) was Mtb heat-shock: 68.87%; Mtb growth Cornell: 16.46%; LdMetRS: 4.065%. Result for COc1ccc(CNCc2cc(Br)c3c(c2)OCO3)cc1 was Mtb heat-shock: 6.905%; LdMetRS: 11.23%.

Result for CN(C)C(=O)c1cnc2n1CCN(Cc1ccc3c(c1)OCO3)C2.O=C(O)C(F)(F)F was Mtb heat-shock: 5.829%; Mtb growth Cornell: 23.26%.

Some entries from above, unchanged:

{"structure": "CCOc1ccccc1-c1cc(N)[nH]n1", "LdMetRS": 12.26}
{"structure": "Cc1ccnc(C2COCCN2C)n1", "stereo": "configuration not stated", "Mtb heat-shock": -10.1, "Mtb growth Cornell": -10.5, "LdMetRS": 6.977}
{"structure": "CC(=O)N1CCC(Cc2cncc(-c3c(C)n[nH]c3C)n2)C1", "stereo": "configuration not stated", "Mtb heat-shock": -0.9695, "Mtb growth Cornell": -34.48, "LdMetRS": 12.86}
{"structure": "c1cc(C2CCCN2Cc2nnnn2C2CC2)cs1", "stereo": "configuration not stated", "Mtb heat-shock": 7.692, "Mtb growth Cornell": 18.67, "LdMetRS": 20.35}